From publication doi:10.1101/443937
These are yes or no findings as the source states them, for the method shown. In cells and extracts the contact can be indirect. Some results given as binding are weak or reduced against the parent protein; the word gives no strength.

Amino acid sequences for entries named in this document (tags omitted). A change or cut given only in a name is not applied to a line headed by its entry. Residues count along the entry.
UniProt Q14494, residues 104-772: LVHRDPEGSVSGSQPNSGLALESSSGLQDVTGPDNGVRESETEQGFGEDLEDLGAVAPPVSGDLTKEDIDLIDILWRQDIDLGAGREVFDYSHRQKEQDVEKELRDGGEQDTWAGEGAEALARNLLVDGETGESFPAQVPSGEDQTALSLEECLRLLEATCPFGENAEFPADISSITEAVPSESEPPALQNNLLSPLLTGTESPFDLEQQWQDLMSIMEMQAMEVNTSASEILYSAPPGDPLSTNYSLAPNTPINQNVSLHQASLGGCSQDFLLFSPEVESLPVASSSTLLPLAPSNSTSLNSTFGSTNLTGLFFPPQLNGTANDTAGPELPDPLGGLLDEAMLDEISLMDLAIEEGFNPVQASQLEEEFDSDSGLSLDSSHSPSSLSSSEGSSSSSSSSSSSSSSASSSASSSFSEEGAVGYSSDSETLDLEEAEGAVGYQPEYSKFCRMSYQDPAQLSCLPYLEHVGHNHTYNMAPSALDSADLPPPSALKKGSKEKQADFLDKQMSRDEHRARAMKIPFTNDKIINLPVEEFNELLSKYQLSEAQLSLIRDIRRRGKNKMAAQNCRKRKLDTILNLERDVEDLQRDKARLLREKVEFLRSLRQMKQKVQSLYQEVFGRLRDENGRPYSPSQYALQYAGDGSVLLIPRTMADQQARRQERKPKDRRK
UniProt Q9Y265: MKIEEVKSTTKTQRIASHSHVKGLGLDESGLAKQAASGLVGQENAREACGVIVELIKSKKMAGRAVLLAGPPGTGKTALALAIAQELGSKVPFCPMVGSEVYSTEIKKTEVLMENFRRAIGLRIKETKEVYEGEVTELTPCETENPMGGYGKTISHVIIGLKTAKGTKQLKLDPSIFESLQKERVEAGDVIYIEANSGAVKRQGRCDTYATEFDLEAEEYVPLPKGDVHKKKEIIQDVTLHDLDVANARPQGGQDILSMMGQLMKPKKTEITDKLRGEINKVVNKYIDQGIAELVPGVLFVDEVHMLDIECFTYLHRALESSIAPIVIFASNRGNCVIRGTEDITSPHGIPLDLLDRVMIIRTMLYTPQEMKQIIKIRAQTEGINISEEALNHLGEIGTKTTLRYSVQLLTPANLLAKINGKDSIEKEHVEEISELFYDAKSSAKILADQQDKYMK

Biological target: Nrf1^3xFLAG (Nuclear factor erythroid derived 2-related factor 1, C-terminally 3xFLAG-tagged) (UniProt Q14494)
Experiment: co-IP

binding: binds
Substance: RUVBL1/2 (from UniProt Q9Y265 1-456; Q9Y230 1-463) (complex)
